The values are deposited in ChEMBL (CHEMBL3988442, “University of Dundee, Small-Polar-MMV Screening Library” (2021)).

Chains of the proteins cited; added tags and fusions are not shown. Residues count along the entry.
UniProt P9WPC5, whole entry: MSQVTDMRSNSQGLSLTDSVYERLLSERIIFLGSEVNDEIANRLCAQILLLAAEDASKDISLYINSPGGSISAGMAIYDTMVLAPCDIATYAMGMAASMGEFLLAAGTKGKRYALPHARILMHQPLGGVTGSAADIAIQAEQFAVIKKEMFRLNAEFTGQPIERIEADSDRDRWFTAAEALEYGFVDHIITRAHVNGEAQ
UniProt P9WPC3, whole entry partner: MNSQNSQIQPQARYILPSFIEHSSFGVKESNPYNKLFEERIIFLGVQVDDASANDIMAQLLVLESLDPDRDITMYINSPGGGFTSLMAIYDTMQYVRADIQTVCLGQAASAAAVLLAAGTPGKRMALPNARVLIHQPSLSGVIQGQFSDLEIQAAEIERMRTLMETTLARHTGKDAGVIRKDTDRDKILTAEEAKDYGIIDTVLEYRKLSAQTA
UniProt A4I591, 1-473: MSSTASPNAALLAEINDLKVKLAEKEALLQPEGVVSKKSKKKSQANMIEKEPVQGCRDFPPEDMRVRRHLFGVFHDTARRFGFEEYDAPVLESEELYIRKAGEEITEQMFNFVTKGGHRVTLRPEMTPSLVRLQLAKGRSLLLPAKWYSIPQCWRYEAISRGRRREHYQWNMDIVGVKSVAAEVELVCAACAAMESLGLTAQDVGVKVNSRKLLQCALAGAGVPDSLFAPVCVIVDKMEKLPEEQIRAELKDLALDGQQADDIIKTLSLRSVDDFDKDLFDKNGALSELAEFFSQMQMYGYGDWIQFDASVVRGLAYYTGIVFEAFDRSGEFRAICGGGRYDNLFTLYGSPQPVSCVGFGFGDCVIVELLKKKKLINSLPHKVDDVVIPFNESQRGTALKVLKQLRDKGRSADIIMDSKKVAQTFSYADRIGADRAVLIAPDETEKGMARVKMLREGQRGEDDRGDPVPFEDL

ClpP1P2: 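ClpP1P2, Mycobacterium tuberculosis (UniProt P9WPC5 and UniProt P9WPC3). Protease assay of ClpP1P2, read by the AMC dye that it sets free. Compounds at 50 µM. Direction is inferred from only a few compounds that gave an IC50; most scored high, so higher reads as stronger inhibition. Most other retested compounds had strongly negative values. Of about 69,000 compounds tested this way, about 10 (0.015%) reached 50% or more in at least one test.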
LiHisRS: 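Enzyme assay of histidyl-tRNA synthetase; the read-out is not stated. Target: Histidine-tRNA ligase, Leishmania infantum (UniProt A4I591). Tested at 30 µM. The record gives no direction; compounds that gave an IC50 in retests scored well above the rest, so higher reads as stronger inhibition. The assay is labelled LdHisRS but filed under L. infantum. Size under these conditions: about 69,000 compounds, about 410 of them at 50% or above in at least one test.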

The filed quantity is “Percent Effect” (%).
The controls that fix the scale are not given in the record; negative values are as filed.
This is an unselected part of the compounds tested.

| # | compound | ClpP1P2 | LiHisRS |
|---|---|---|---|
| 1 | `O=C1CCC(=O)c2oc3ccc(Cl)cc3c2N1` | -22.61 | 3.704 |
| 2 | `O=C(C1CCC1)N1CCN(C(=O)c2cnccn2)[C@H]2CS(=O)(=O)C[C@H]21` | -1.233 | 19.23 |
| 3 | `O=C(Cc1cccs1)N1CCCCC1c1ccn2ccnc2n1` (stereo unspecified) | -1.374 | 26.8 |
| 4 | `c1ccc(OC2CCCC2)c(CNC2CCc3ncnn3C2)c1` (stereo unspecified) | 20.45 | 19.15 |
| 5 | `Cc1nc(NS(=O)(=O)c2cccc(F)c2C)no1` | 0.4149 | 16.85 |
| 6 | `Cc1nc(NC(=O)N2CCCC(N(C)C)C2)nn1C` (stereo unspecified) | -8.582 | 12.9 |
| 7 | `Cc1nc(C2CCCCN2C(=O)c2ccccc2)ncc1C(=O)N(C)C` (stereo unspecified) | -4.094 | 2.19 |
| 8 | `Cn1cc(CN2CC[C@@H]3[C@@H](CCC(=O)N3CCc3c[nH]cn3)C2)cn1` | -2.292 | -13.33 |
| 9 | `CC(C)NC(=O)N1CCc2ncc(CN3CCOCC3)n2CC1` | -8.899 | 4.511 |
| 10 | `CNS(=O)(=O)c1c(C)sc2ccccc12` | -11.55 | 6.667 |
| 11 | `CNc1cc(N2CCC(O)(CNC(=O)c3ccc(C)nc3)C2)ncn1` (stereo unspecified) | -5.361 | 19.79 |
| 12 | `O=C(CCc1cc(Cl)no1)N1CCCCC1CCN1CCOCC1` (stereo unspecified) | -9.13 | 5.714 |
| 13 | `COc1ccc(NC(=O)CCc2c(C)nc3cc(O)nn3c2C)cn1` | 9.321 | 32.88 |
| 14 | `O=C1CN(C(=O)C2CCOC2)CCN1Cc1ccc(Cl)cc1` (stereo unspecified) | 2.451 | 9.091 |
| 15 | `Cn1cccc(NC(=O)N2CCC(COCc3ccccc3)C2)c1=O` (stereo unspecified) | -2.88 | 107.9 |
| 16 | `CN(C)CCN1CCOCC2(C1)CN(Cc1nccs1)CCO2` (stereo unspecified) | -0.2375 | -4.425 |
| 17 | `c1cnc(NC[C@@H]2CCC[C@@H]3CN(Cc4csnn4)C[C@@H]32)nc1` | -4.985 | 27.63 |
| 18 | `COc1c(CNCc2cccc(Cn3cccn3)c2)c(C)nn1C` | -5.95 | 14.29 |
| 19 | `CCN(Cc1ccc(F)cc1Cl)C1CCS(=O)(=O)C1` (stereo unspecified) | -18.31 | 10.53 |
| 20 | `COCCNC(=O)c1nn(-c2cccc(C(C)C)c2)cc1O` | 9.026 | 13.33 |
| 21 | `CNS(=O)(=O)CCCN1CCCC1c1noc(C2CC2)n1` (stereo unspecified) | -6.15 | -1.124 |
| 22 | `CC(C)Nc1nc(N2CCOCC2)nc2c1CN(CC(=O)N(C)C)CC2` | 4.391 | 3.65 |
| 23 | `Cc1noc2nc(C3CCN(CC4=CCCOC4)CC3)cc(C(F)F)c12` | 1.976 | 16.67 |
| 24 | `CN(Cc1ccccc1)C1(C(=O)NCC(N)=O)Cc2ccccc2C1` | -4.543 | -10.53 |
| 25 | `O=C(NCC(=O)N1CCCC1Cc1cccc(F)c1)C1CCCC1` (stereo unspecified) | 7.569 | 8.108 |
| 26 | `Cc1cc(C)n(CCCNc2ncnc3c2NC(=O)CN3)n1` | -98.63 | 35 |
| 27 | `CCC(=O)N1CCC(O)(c2ncc(OC)nc2OC)CC1` | 2.69 | 5.714 |
| 28 | `CCS(=O)(=O)N1CCC(NCC2CNc3cc(C)nn3C2)CC1` (stereo unspecified) | -4.279 | 16.39 |
| 29 | `CCNc1cc2c(nn1)CCN(C(=O)C(C)c1c(C)noc1C)C2` (stereo unspecified) | -32.62 | 15.18 |
| 30 | `O=C(CSc1ccccc1F)NS(=O)(=O)c1ccc2c(c1)OCCO2` | -1.791 | 5.357 |
| 31 | `CC(C)(C)NC(=O)c1nn(C2CCS(=O)(=O)C2)c2c1CCCC2` (stereo unspecified) | -9.887 | 12.5 |
| 32 | `OC(CNc1ncnc2c1CCNCC2)C(F)(F)F` (stereo unspecified) | -9.814 | 7.042 |
| 33 | `CCN(CCn1cccn1)Cc1nc(-c2cccs2)oc1C` | -9.285 | 8.654 |
| 34 | `CC(C)N(CC1CCCN(CC(N)=O)C1)C(=O)OC(C)(C)C` (stereo unspecified) | 2.901 | 1.333 |
| 35 | `CN(CCCNS(=O)(=O)N1CCC2(CC1)OCCO2)c1ccccc1` | -6.688 | 28.12 |
| 36 | `CCC(=O)N1CCC(c2nc3ccc(NC(C)C)cn3n2)CC1` | -0.9158 | 3.846 |
| 37 | `CCN(CC)C1(Cc2cc(COC)on2)COC1` | -6.473 | -21.62 |
| 38 | `COC1CCN(C(=O)CC(C)(C)C)CC(=O)N(C)c2ccccc21` (stereo unspecified) | -6.404 | 6.122 |
| 39 | `CC(C)(O)CCc1ccc(C(=O)N2CCN(CC3CCCC3)CC2)cc1` | -2.44 | 4.167 |
| 40 | `CC(C)N(C)Cc1cn2c(n1)CN(Cc1ccsc1)CC2` | -3.128 | 9.524 |
| 41 | `COc1ccc(-c2cc3nn(CC(=O)NC(C)C)c(=O)n3c(C)n2)cc1` | -37.35 | 21.74 |
| 42 | `CC(=O)N1CCN(C(=O)CN2CCCC2Cn2nc(C)cc2C)CC1` (stereo unspecified) | -25.73 | -7.895 |
| 43 | `CCn1c(C)cc(C(=O)N2CCCC(c3nc(C)no3)C2)c1C` (stereo unspecified) | 25.28 | 18.67 |
| 44 | `COCCNC(=O)[C@H]1C[C@@H]2CCN(CCc3ccccc3)C[C@H]2O1` | 2.037 | 27 |
| 45 | `Cc1nccn1C1CCCN(C(=O)COCC2CC2)C1` (stereo unspecified) | -25.35 | 12.84 |
| 46 | `COc1cc(CNc2cc(-c3ccoc3C)nn2CCO)ccc1F` | -9.6 | 7.143 |
| 47 | `CN(C)C(=O)CN1C[C@@H]2CC[C@H](C1)N(C/C=C/c1ccc(F)cc1)C2` | -4.653 | 38.24 |
| 48 | `CN1CCC(N2CCOC[C@H]2c2nc(-c3ccncc3)c[nH]2)CC1` | 7.187 | 14.86 |
| 49 | `Cc1ccc(C(=O)N2CCc3c(CN4CCCC4)nn(C)c3C2)cc1C` | 8.991 | 4.425 |
| 50 | `CC(C)c1nc(CSc2nnc(Cn3cncn3)o2)cs1` | 0.005293 | 19.35 |
| 51 | `CSCC(=O)N1C[C@H]2CC[C@@H]1CN(Cc1ccccc1)C2` | 2.275 | 26.92 |
| 52 | `COCCC1(CO)CCCN(C(=O)c2cc(=O)[nH]c(=O)[nH]2)C1` (stereo unspecified) | -6.179 | 4.839 |
| 53 | `N#Cc1ccc(NCCC(=O)N2CCCc3ccccc32)nc1` | -1.068 | 11.71 |
| 54 | `COc1cc(CN(C)C(=O)NCc2cccc3c2OCO3)ccc1SC` | 6.075 | 12.12 |
| 55 | `CSCCC(NC(=O)c1ccccc1)C(=O)N(C)Cc1ccsc1` (stereo unspecified) | 4.254 | 7.254 |
| 56 | `CC(=O)N1CCN(C(=O)CNc2cccc(OC(F)F)c2C)CC1` | 4.877 | 11.11 |
| 57 | `CCCNC(=O)Nc1ncc(-c2cccnc2)s1` | 2.692 | 14.18 |
| 58 | `CC(C)COC1CC2(CCN(C(=O)Cc3ccccn3)CC2)C1` | -6.112 | -82 |

Once more, the final 5:

COc1cc(CN(C)C(=O)NCc2cccc3c2OCO3)ccc1SC gave ClpP1P2: 6.075%; LiHisRS: 12.12%.
CSCCC(NC(=O)c1ccccc1)C(=O)N(C)Cc1ccsc1 (stereo unspecified) gave ClpP1P2: 4.254%; LiHisRS: 7.254%.
CC(=O)N1CCN(C(=O)CNc2cccc(OC(F)F)c2C)CC1 gave ClpP1P2: 4.877%; LiHisRS: 11.11%.
CCCNC(=O)Nc1ncc(-c2cccnc2)s1 gave ClpP1P2: 2.692%; LiHisRS: 14.18%.
CC(C)COC1CC2(CCN(C(=O)Cc3ccccn3)CC2)C1 gave ClpP1P2: -6.112%; LiHisRS: -82%.